In the supplement of paper PMC3334620:
The full ranking holds about 33,000 sequences; the median of “E-score (-0.5 to 0.5)” is about -0.0034, and the highest 2% start at about 0.25. The list shows a part of the results.

molecular target: T1, Yap3 (UniProt P38749); test: PBM E-score (8-mer binding enrichment) (E-score (-0.5 to 0.5)); higher = stronger / more preferred TF binding; conditions: protein concentration: 100 nM; construct: GST-full length
T1 sequence: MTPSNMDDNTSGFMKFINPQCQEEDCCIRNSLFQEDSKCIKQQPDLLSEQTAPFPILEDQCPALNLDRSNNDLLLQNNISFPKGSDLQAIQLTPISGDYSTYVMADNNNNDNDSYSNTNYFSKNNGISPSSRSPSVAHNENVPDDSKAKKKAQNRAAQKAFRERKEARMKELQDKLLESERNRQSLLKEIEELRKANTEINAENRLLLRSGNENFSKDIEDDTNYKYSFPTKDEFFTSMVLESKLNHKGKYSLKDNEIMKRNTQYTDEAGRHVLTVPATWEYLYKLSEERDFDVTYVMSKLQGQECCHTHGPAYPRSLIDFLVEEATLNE
Method in brief: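 Detection of bound protein used fluorescent anti-GST, with scans normalised by masliner. The proteins were GST-tagged yeast transcription factors applied at about 100-200 nM to universal all-10-mer Agilent arrays made double-stranded by primer extension. Each ungapped eight-base word, pooled with its reverse complement, was scored with an E-score from the Universal PBM Analysis Suite.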

Row | Sequence | PBM E-score
1 | GCTATCCA | -0.0873
2 | GCGGCAAC | -0.0289
3 | ACATGCGA | -0.0823
4 | GGAGGCAA | -0.245
5 | CAGCGAAC | -0.0135
6 | AGGTCGAG | -0.13
7 | GTGTCCCA | -0.194
8 | GGCACATA | 0.0174
9 | AGAAGGGC | -0.17
10 | ATCAGGGG | -0.0789
11 | GCGCAATA | 0.0165
12 | CGTTGCCA | 0.0873
13 | ATCGATTC | 0.111
14 | GGGCTGAA | 0.0423
15 | ATCGGCTG | -0.136
16 | AACGCAGA | -0.0761
17 | CGTGGACC | -0.305
18 | AGTTTTTC | 0.118
19 | AGAGATAA | 0.169
20 | CACACACG | 0.0835
21 | GTAAGAAC | 0.133
22 | CTCGTAAC | 0.177
23 | AATTTCAA | 0.171
24 | ACAAACCT | 0.193
25 | CCATCAGG | -0.31

Row | Sequence | PBM E-score
26 | ATATAAGG | 0.252
27 | TATCACGA | 0.0641
28 | ACGTCGCA | -0.015
29 | ACTGGGCA | -0.157
30 | CGGGCACG | -0.112
31 | AACCTTCT | -0.133
32 | GTAATATA | 0.354
33 | CACCACAA | 0.0629
34 | CCGCTAGG | -0.128
35 | GTATGCTA | -0.0442
36 | CCCGGATA | 0.00459
37 | CTCTCATC | -0.152
38 | CGTCCACA | 0.0252
39 | CCGCCGCA | -0.0911
40 | CGGATCAA | 0.0957
41 | GTCCGACA | 0.0331
42 | GGGCGTTA | -0.0517
43 | AGCGGAGC | -0.239
44 | TAGTCTGA | -0.007
45 | CGGACACC | -0.242
46 | CAGGAGGG | -0.286
47 | GTCCCATA | -0.0701
48 | ATGATTTA | 0.202
49 | ACACCGAC | -0.143
50 | CATCGGGA | -0.0122

Row | Sequence | PBM E-score
51 | GGCAAATA | 0.158
52 | GGAACACC | -0.0659
53 | AGAACTAA | 0.0761
54 | GACCCTCC | -0.0628
55 | TCAACGCA | 0.128
56 | ATCGACGG | -0.0561
57 | CTTCCCAC | 0.0504
58 | GCAACCAA | 0.0989
59 | CGTAGAGC | 0.0751
60 | CCATTCGA | -0.0112
61 | GACGGTGA | -0.0769
62 | ACCCTAAT | -0.133
63 | ACGGGTTC | -0.142
64 | CTCCGAGC | -0.0623
65 | CATAATTA | 0.316
66 | AAGATGTA | 0.144
67 | TAAGACAA | 0.187
68 | GGCTCTAC | -0.176
69 | GGCTCAAC | -0.164
70 | AGCGGGTA | -0.0987
71 | CGTCTTAC | -0.0666
72 | CCCTTACG | -0.128
73 | CCGAAATC | 0.0889
74 | CATATCTA | 0.189
75 | TGTGCAAA | 0.0609

Row | Sequence | PBM E-score
76 | AGACTTGA | -0.149
77 | GCATGCGC | 0.118
78 | AGTACAAT | 0.209
79 | AACACGCA | 0.0637
80 | CGTCTCCC | -0.0443
81 | CATGCCCC | -0.0993
82 | TGTTGGAA | 0.122
83 | ATCGCAGG | -0.087
84 | ATATTTGC | 0.186
85 | AGCAGATC | -0.0406
86 | GAGCGTGC | -0.0274
87 | GGGCAGAA | 0.0926
88 | ATCGCCTG | -0.258
89 | CGGGCGAG | -0.0755
90 | GCAGAGGC | -0.269
91 | AAATAACG | 0.218
92 | AGACGCAA | 0.0908
93 | CTCGTAGC | 0.0534
94 | ATCTGTTC | 0.0599
95 | GGATGTAA | 0.155
96 | CACTTTAG | -0.0635
97 | ATTGAGAC | 0.0362
98 | GGATTCTA | -0.0259
99 | CATACGGA | 0.0891
100 | CATGAAAG | 0.0754

Row | Sequence | PBM E-score
101 | CCGGGCGC | -0.253
102 | AGCGAGGA | -0.00519
103 | GCGCAAAC | 0.0814
104 | GCTGCAAC | -0.126
105 | ATGTGTTC | 0.0344
106 | AGGGCAAA | 0.0194
107 | CGCACCCG | -0.115
108 | TCGACGAA | 0.0901
109 | TCCGGAAA | 0.0257
110 | GTTAGGAA | 0.0835
111 | GCCAGCAC | -0.146
112 | CGAGCGCA | 0.127
113 | CAACTACC | -0.00416
114 | ACTTAAAC | 0.133
115 | TAGACGCA | -0.122
116 | ATGCCCGC | -0.053
117 | CACATGAG | -0.0704
118 | CTGTCCAC | -0.121
119 | CCACGAGG | 0.0512
120 | AAATATAA | 0.275
121 | ACTACAGC | -0.2
122 | AGCGTCGC | -0.168
123 | ATGACACG | 0.118
124 | AAACCGAG | 0.0155
125 | AAGCAGGG | -0.151

Given as a markdown table: part of the list above

| Row | Sequence | PBM E-score |
| --- | --- | --- |
| 118 | CTGTCCAC | -0.121 |
| 119 | CCACGAGG | 0.0512 |
| 120 | AAATATAA | 0.275 |
| 121 | ACTACAGC | -0.2 |
| 122 | AGCGTCGC | -0.168 |
| 123 | ATGACACG | 0.118 |

Rewritten field by field: part of the list above.
GGCTCTAC
  PBM E-score = -0.176
GGCTCAAC
  PBM E-score = -0.164

(next part)

Row | Sequence | PBM E-score
126 | AGGACGGA | -0.148
127 | GCATAATA | 0.283
128 | CCGGGCGA | -0.133
129 | AGTGTAAT | 0.169
130 | AAACGGCG | 0.177
131 | CACTAAAC | 0.108
132 | GGTGGGGA | 0.125
133 | AAACTGTA | 0.0968
134 | ACAATTTG | 0.023
135 | CATCTTAC | 0.125
136 | ACAACTAT | 0.127
137 | CCCATGCA | -0.115
138 | TCTATAAA | 0.111
139 | CGGATATC | 0.117
140 | ATAGTCGA | 0.0937
141 | ACACTAGA | 0.0595
142 | AGCATAGG | -0.106
143 | ACGATGGA | 0.0019
144 | AGGGGATG | -0.194
145 | AAGTAGGC | 0.0175
146 | AGATGCCG | -0.0719
147 | GACTAGCC | -0.283
148 | TTAGTAAA | 0.295
149 | ACCGCGAG | -0.0409
150 | CGGAACCA | 0.13

Individual results from the results shown.
In PBM E-score, AAGCAGGG reads -0.151
In PBM E-score, AGACTTGA reads -0.149
In PBM E-score, ATGATTTA reads 0.202
In PBM E-score, ACACTAGA reads 0.0595

(continued)

Row | Sequence | PBM E-score
151 | CGGCCCAA | -0.0985
152 | ATTGATGA | -0.00625
153 | ACCACCAT | -0.0237
154 | AATAAGCT | 0.0455
155 | GCTTGTTA | 0.0633
156 | GCCCTTTA | -0.146
157 | CGTCTTGC | -0.012
158 | GATTTAAA | -0.0257
159 | CCAATATA | 0.0353
160 | CATTCCGG | -0.21
161 | CAGGCCCC | -0.261
162 | GCCATTAC | 0.0942
163 | ATCAAGAT | -0.0565
164 | GGCCGATA | -0.12
165 | AGGGCTTC | -0.213
166 | TACTTTAA | 0.105
167 | ACAAGGGG | -0.193
168 | ACCTATCG | 0.146
169 | TTCACGAA | -0.109
170 | ATGGCTTA | 0.0389
171 | AAGCTAGG | -0.00103
172 | CCCCAGTC | -0.334
173 | CAGCAATA | 0.0952
174 | GCTATAGC | -0.159
175 | GGCACCCC | -0.351

Row | Sequence | PBM E-score
176 | AGCCGAGA | -0.121
177 | AACATCTG | -0.088
178 | CTGTGACA | 0.0329
179 | ATAGACGC | 0.105
180 | ATCAGGAA | 0.073
181 | CCGCTGCA | 0.024
182 | AACAGAGC | -0.046
183 | CTGCGAAG | -0.217
184 | TCGGGAGA | -0.0734
185 | AGAATCCG | 0.00149
186 | AATCTTCT | -0.0095
187 | CAAGGAGG | 0.102
188 | CTGTCTTA | 0.071
189 | AGACACGG | 0.0134
190 | CGACTAGC | -0.0475
191 | ATGCCCCA | -0.123
192 | ACATTTTG | 0.171
193 | ACGGTGTG | -0.181
194 | ACCCACAT | -0.011
195 | CCGAATAA | 0.193
196 | CCACAAAG | 0.00297
197 | GTACGCTA | 0.00027
198 | ACAGAAGA | 0.0799
199 | CGAGCCAC | -0.228
200 | CTAAGTTA | 0.105

Row | Sequence | PBM E-score
201 | AAGATCAT | 0.0449
202 | CCTCTGAC | -0.16
203 | CAACAACC | 0.0271
204 | CGCGCAAG | 0.0939
205 | TCCTCAGA | 0.0579
206 | TAAAACAA | 0.0703
207 | GGGGAATA | 0.0481
208 | GATTAATA | 0.367
209 | ACCAGACC | -0.206
210 | CCAACGAC | -0.0578
211 | ATAACGAC | 0.216
212 | GAGAATTA | 0.214
213 | AAGATATT | 0.212
214 | GTATGTTA | 0.137
215 | GATTAGTA | 0.218
216 | CGACTCGC | -0.048
217 | ACCTCCGG | -0.0361
218 | AGAATCCA | -0.104
219 | GATTGGGC | 0.0771
